For at least one compound, name, drawing or mass did not settle the structure.
Test system: mouse acute GVHD model
Test: Mouse acute GVHD model, IFN-γ in the plasma
Assay type: in vivo, mouse (BDF1 host, C57BL/6N donor)
Conditions: Day 7

Cl.[2H]c1c([2H])c([2H])c(OC2(c3ccccc3)CN(S(=O)(=O)c3cccc(C[C@H](N)C(=O)OC(C(=O)N(C)C)C(C)C)c3)C2)c([2H])c1[2H] (stereo partly drawn) [Example 25, 1-(Dimethylamino)-3-methyl-1-oxobutan-2-yl (2S)-2-amino-3-(3-{3-phenyl-3-[(^2H5)phenyloxy]azetidin-1-sulfonyl}phenyl)propanoate monohydrochloride]
production of IFN-γ in the plasma (oral 3 and 10 mg/kg twice a day (BID)): suppressed production of IFN-γ in the plasma in a dose-dependent manner
effect on IFN-γ in the plasma vs Vehicle group (Dunnett test) (oral, dose of 10 mg/kg (BID) or more): significant effect
